Results on 4 compounds are retold here after patent publication US8455666B1, “Vegetable oil esterified lipoic acid” (The United States of America, as represented by the …, priority 2011, dated 2013).

The nature of series [1]: Vesicle leakage (calcein-cobalt) assay. As to the method: Lipid Preparation and Formation of Unilamellar Phospholipid Vesicles. Lipid mixtures and vesicles were prepared as described previously (Laszlo et al. 2010. ibid). Lipids were prepared from appropriate amounts of DOPC in chloroform and LDOG-SS- or LDOG-SH (at 1- or 5-mol % of total lipids) in ethanol added to clean amber vials and then gently mixed. Solvents were removed under a stream of argon and then vacuum. The dried lipids were rehydrated in the appropriate buffer and mixed periodically to form multilamellar phospholipid vesicles. The vesicles were subjected to freeze-thaw cycles and then extrusion to form unilamellar vesicles (approx. 125 nm in diameter). Vesicles were covered with argon, protected from light and stored at 4° C. until used. DOPC vesicles incorporating 1- or 5-mol % ALA or DHLA were similarly produced.
Vesicle Leakage (Calcein-Cobalt). Vesicles with and without LDOG were evaluated for membrane integrity using a leakage assay described previously (Evans. Room-temperature ionic liquid cations act as short-chain surfactants and disintegrate a phospholipid bilayer. Colloid. Surface. A 2006, 274:11-17; and Laszlo et al. 2010. ibid). Briefly, the leakage assay was designed such that the low fluorescent signal of the entrapped calcein-cobalt complex increased as vesicles leaked their contents and cobalt was stripped from calcein by external EDTA. Vesicle leakage was monitored with a fluorometer. Samples were continuously stirred in 1-cm path length quartz cuvettes 37° C., with measurements taken for 30 min at 5-s intervals. Experiments were conducted in triplicate. Leakage percentage (L) was determined from the intensity of the fluorescent signal, 100×(Ft−Fo)/(Fmax−Fo), where Ft was the fluorescent signal over time, Fo was the extrapolated initial signal at time zero, and Fmax was the fluorescent signal at the end of the experiment after rupture by addition of Triton X-100 solution. The apparent rate constant k (ms^−1) and maximum extent of vesicle leakage (L∞), prior to vesicle rupture, were obtained by fitting to the equation: Lt=L∞(1−exp(−kt)).

Series [2] in a line: Fluorescence quenching of Bodipy-labeled fatty acids in DOPC vesicles (lipoyl moiety location). The conditions noted are these: increasing concentration (10-50 μM) in 950 μM DOPC vesicles. The text has this:
Lipoic Moiety Location Using Bodipy-Labeled Fatty Acid. Prior studies determined drug location within phospholipid membrane using a series of n-(9-anthroyloxy) stearic acids (Ferreira et al., Partition and location of nimesulide in epc liposomes: A spectrophotometric and fluorescence study. Analytical and Bioanalytical Chemistry 2003, 377:293-298; and Ferreira et al., Effects of diclofenac on epc liposome membrane properties. Anal Bioanal Chem 2005, eFIRST) in which the anthroyloxy moiety is inserted at the 2, 6, 9, or 12 carbon position on the fatty acid chain. Fluorescence quenching of the anthroyloxy moiety in the presence of increased quencher concentrations was used to infer quencher position within the bilayer. This is based on the concept that quenching occurs between the anthroyloxy group and the nearest quencher only. In this current study, the membrane location of the lipoic moiety of LDOG-SS- and LDOG-SH was similarly determined using a fatty acid labeled with Bodipy® 500/510 located at different positions of the fatty acid. […] Fluorescence emission spectra were recorded using 509 nm excitation. Relative fluorescence (F/F0) was determined, where F0 was the fluorescence value at 517 nm for vesicles without any lipoyl lipid present and F was the 517 nm emission peak value of vesicles with either lipoyl lipid present. […]

[3] abbreviates: antioxidant amount 1 mol % in DOPC vesicles, 37° C.
[4] abbreviates: antioxidant amount 5 mol % in DOPC vesicles, 37° C.

As to “dihydrolipoyl dioleoylglycerol [LDOG—SH]”, the “maximum leakage (L∞)” value in series [1] (setting [3]) is recorded as 6.1 ± 0.5%; in series [1] (setting [4]), 3.1 ± 0.2%. The “quenching of C8,C5-Bodipy fluorescence” value in series [2] is recorded as “decreased moderately”.

As to `O=C(O)CCCC[C@@H](S)CCS` (racemic) [DHLA, dihydrolipoic acid], the “leakage rates compared with unaugmented liposomes” value in series [1] (5-mol % inclusion level) is on record as “five-fold lower”. The results for the “maximum leakage (L∞)” value in series [1] (setting [3]) and in series [1] (setting [4]) were 0.7 ± 0.3% and 1.5 ± 0.6%, respectively.

Take `O=C(O)CCCCC1CCSS1` (stereo not drawn) [ALA, α-Lipoic acid]: the “maximum leakage (L∞)” value in series [1] (setting [3]) is given as 7.6 ± 2.1%; in series [1] (setting [4]), 4.7 ± 0.7%.

With lipoyl dioleoylglycerol [LDOG—SS—], the “leakage rates compared with unaugmented DOPC vesicles” value in series [1] (37° C., in words) is listed as “lowered an order of magnitude”. Moreover, the figures for the “maximum leakage (L∞)” value in series [1] (setting [3]) and in series [1] (setting [4]) were 4.2 ± 0.7% and 3.6 ± 0.5%, respectively. For the same compound, the “quenching of C8,C5-Bodipy fluorescence” value in series [2] is “decreased moderately”.
